In publication PMC5884524, “A high content, high throughput cellular thermal stability assay for measuring drug-target engagement in living cells” (PLoS ONE, 2018):
A number of entries come with more than one value. Only these are listed. An entry can have further records. Values given together differ for a reason that is not stated; they may come from other doses, times, organisms or constructs than stated.

Chains of the proteins cited; added tags and fusions are not shown.
UniProt O14757, whole entry: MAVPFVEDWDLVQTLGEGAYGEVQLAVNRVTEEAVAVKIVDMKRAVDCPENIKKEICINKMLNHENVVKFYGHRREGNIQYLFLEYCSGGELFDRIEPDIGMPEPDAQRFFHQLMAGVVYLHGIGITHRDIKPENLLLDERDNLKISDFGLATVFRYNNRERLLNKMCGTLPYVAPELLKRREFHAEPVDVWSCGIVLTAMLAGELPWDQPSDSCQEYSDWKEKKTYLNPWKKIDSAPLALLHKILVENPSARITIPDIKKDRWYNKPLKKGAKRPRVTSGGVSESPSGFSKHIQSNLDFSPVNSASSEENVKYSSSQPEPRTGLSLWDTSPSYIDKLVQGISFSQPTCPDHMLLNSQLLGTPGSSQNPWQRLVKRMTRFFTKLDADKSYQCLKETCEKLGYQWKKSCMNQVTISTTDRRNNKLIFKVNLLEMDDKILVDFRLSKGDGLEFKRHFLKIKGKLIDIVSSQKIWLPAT

Target: Chk1 (Homo sapiens, UniProt O14757)
Experiment: HCIF-CETSA (CETSA by immunofluorescence), low well volume heating, HT29 cells
Conditions: EC50 by HCIF-CETSA or CETSA vs autophosphorylation IC50

Fold by which HCIF-CETSA / CETSA classic EC50 is greater than the autophosphorylation IC50: 23 fold and 12 fold
Compound: CN(C)CC(C)(C)COc1ccc2[nH]c(-c3cc(NC(=O)c4cnn(Cc5ccccc5)c4)c[nH]c3=O)cc2c1 [V158411]
